Structures can show the parent of a compound that is named as a salt. This is one part of the list. Repeats in this data set agree poorly, so a single value says little.
Tested on: MDA-MB-468
Assay: phospho-S6 immunofluorescence (DAPI-normalised), per-plate z-score; higher = higher phospho-S6 signal (less pathway suppression)
Conditions: 24 h
Experimental: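 GPCR-targeted compound library (MedChemExpress HY-L006) tested on MDA-MB-468 PTEN-null TNBC cells in 384-well plates at 0.1, 1 or 10 uM, combined with vehicle, GDC0941 450 nM or lapatinib 1 uM, for 24 h. Phospho-S6 (S240/244) immunofluorescence normalised to DAPI and expressed as a per-plate z-score; values are the mean of biological triplicates.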

[1] = compound 0.1 µM, co-treatment: GDC0941 450 nM
[2] = compound 0.1 µM, co-treatment: lapatinib 1 uM
[3] = compound 0.1 µM, co-treatment: vehicle
[4] = compound 1 µM, co-treatment: GDC0941 450 nM
[5] = compound 1 µM, co-treatment: lapatinib 1 uM
[6] = compound 1 µM, co-treatment: vehicle
[7] = compound 10 µM, co-treatment: GDC0941 450 nM
[8] = compound 10 µM, co-treatment: lapatinib 1 uM
[9] = compound 10 µM, co-treatment: vehicle

Row | Structure (SMILES) | phospho-S6 immunofluorescence (z-score) [1] | phospho-S6 immunofluorescence (z-score) [2] | phospho-S6 immunofluorescence (z-score) [3] | phospho-S6 immunofluorescence (z-score) [4] | phospho-S6 immunofluorescence (z-score) [5] | phospho-S6 immunofluorescence (z-score) [6] | phospho-S6 immunofluorescence (z-score) [7] | phospho-S6 immunofluorescence (z-score) [8] | phospho-S6 immunofluorescence (z-score) [9]
1 | CC[C@H](C)[C@H](NC(=O)[C@H](Cc1ccc(O)cc1)NC(=O)[C@@H](NC(=O)[C@H](CCCNC(=N)N)NC(=O)[C@@H](N)CC(=O)O)C(C)C)C(=O)N[C@@H](Cc1c[nH]cn1)C(=O)N1CCC[C@H]1C(=O)O [Angiotensin (1-7)] | -2.62 | -1.65 | -2.7 | -1.96 | -0.68 | -1.58 | 0.11 | 0.71 | -0.4
2 | CCCCC[C@H](O)/C=C/[C@H]1[C@H](O)CC(=O)[C@@H]1CCCCCCC(=O)O [Prostaglandin E1] | -0.47 | -0.46 | -0.23 | -0.45 | 0.35 | -0.29 | -0.04 | 1.48 | -0.27
3 | N=C(N)NC(=O)Cc1c(Cl)cccc1Cl [Guanfacine (hydrochloride)] | 0.11 | -0.04 | 0.68 | 0.57 | 0.13 | -0.03 | 0.64 | 0.23 | 0.38
4 | CC(=O)Oc1cc(C(C)C)c(OCCN(C)C)cc1C [Moxisylyte (hydrochloride)] | 0.26 | 0.75 | -0.45 | 0.54 | -0.29 | -1.58 | 0.49 | -0.11 | -1.23

Reference: the supplement of paper PMC7411640
